Drawing on US20160354479A1 (ESBATECH AN ALCON BIOMEDICAL RESEARCH UNIT, published 2016), this text covers binding for 3 molecules.

The chains behind the UniProt entries cited, without tags or fusion partners. Residues count along the entry.
UniProt P01375, residues 77-233: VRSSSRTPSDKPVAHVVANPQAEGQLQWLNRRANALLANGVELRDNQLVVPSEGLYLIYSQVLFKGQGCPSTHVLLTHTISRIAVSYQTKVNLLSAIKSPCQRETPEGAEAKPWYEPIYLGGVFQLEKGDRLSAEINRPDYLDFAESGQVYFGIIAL

Results are given in words; binding and its absence hold for the method and conditions named. Some results given as binding are weak or reduced against the parent protein; the word gives no strength.

The target in assay [1] is T1, Human TNF alpha (human, UniProt P01375 77-233).
T1 construct: Coated on the ELISA plate
The assay is described as follows: direct ELISA on coated human TNF alpha, detection with biotinylated rabbit anti-ESBA105 antibody and streptavidin poly-HRP, OD 450 nm. How it is done:
Binding of ESBA105 and its derivatives was assessed by a direct ELISA. Human TNF alpha (PeproTech EC Ltd) was coated on a 96-well microtitre plate and then blocked using BSA (bovine serum albumin). ESBA105 and ESBA105 derivates were tested at concentrations of 50 nM, 12.5 nM, 3.13 nM, 1.56 nM, 0.78 nM, 0.39 nM, 0.20 nM, 0.10 nM and 0.05 nM. Binding of ESBA105 and its derivatives to human TNF alpha was visualized by the subsequent addition of a biotinylated rabbit polyclonal anti-ESBA105 antibody (AK3A, generated at ESBATech), streptavidin Poly HRP and a chromogenic substrate (POD). The product of this reaction was detected by measurement of the optical densitiy (OD) at […] using a spectrophotometer. Data were analyzed using a 4-parameter logistic curve fit, and EC₅₀ values were calculated from the dose-response curves of the scFvs.

Assay [2] concerns the target T1, Human TNF alpha. In words: direct ELISA, human TNF alpha coated.

B1: ESBA105 (scFv)
scFv: MADIVMTQSPSSLSASVGDRVTLTCTASQSVSNDVVWYQQRPGKAPKLLIYSAFNRYTGVPSRFSGRGYGTDFTLTISSLQPEDVAVYYCQQDYNSPRTFGQGTKLEVKRGGGGSGGGGSGGGGSSGGGSQVQLVQSGAEVKKPGASVKVSCTASGYTFTHYGMNWVRQAPGKGLEWMGWINTYTGEPTYADKFKDRFTFSLETSASTVYMELTSLTSDDTAVYYCARERGDAMDYWGQGTLVTVSS
notes: Untreated scFv (VL-linker-VH), made in E. coli; also called ESBA105 Normal linker; naked ESBA105
For the molecule B1, in the assay with Human TNF alpha [1], the binding result is reported as “binds”.

B2: Lys pegylated ESBA105 (scFv)
scFv: B1 scFv
modifications: primary amines (lysine residues) PEGylated with PEG-NHS; positions not given
For the molecule B2, the binding entry with Human TNF alpha [2] was “binds”.

B3: reduced ESBA105 (scFv)
scFv: B1 scFv
modifications: disulfide bonds reduced with 20 mM DTT
Regarding B3, the binding result with Human TNF alpha [2] is “binds”.
